Assay [1] deals with T1, FLAG-FAM122A I85A/K86A (mouse) (UniProt Q9DB52).
T1 sequence: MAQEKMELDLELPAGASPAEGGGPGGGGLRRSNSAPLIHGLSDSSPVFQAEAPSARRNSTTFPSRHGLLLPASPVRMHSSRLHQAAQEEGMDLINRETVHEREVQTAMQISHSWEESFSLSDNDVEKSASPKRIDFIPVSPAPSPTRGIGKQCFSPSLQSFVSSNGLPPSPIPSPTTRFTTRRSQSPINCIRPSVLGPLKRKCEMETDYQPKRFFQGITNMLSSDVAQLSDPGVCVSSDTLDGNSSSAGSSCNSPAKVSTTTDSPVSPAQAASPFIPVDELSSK
The experiment in a line: co-IP.

The target of assay [2] is T2, FLAG-FAM122A R81A-L82A (SLiM mutant) (mouse) (UniProt Q9DB52).
T2 sequence: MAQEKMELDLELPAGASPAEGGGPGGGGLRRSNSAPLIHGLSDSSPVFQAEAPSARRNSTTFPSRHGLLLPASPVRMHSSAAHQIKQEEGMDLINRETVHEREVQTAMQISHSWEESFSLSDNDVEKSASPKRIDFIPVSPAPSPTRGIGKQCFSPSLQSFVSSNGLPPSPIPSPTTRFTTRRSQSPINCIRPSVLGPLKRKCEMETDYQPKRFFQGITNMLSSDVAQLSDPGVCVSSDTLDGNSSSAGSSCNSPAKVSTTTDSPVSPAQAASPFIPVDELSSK
The experiment in a line: co-IP.

Assay [3] concerns the target T3, FLAG-FAM122A S73A (mouse) (UniProt Q9DB52).
T3 sequence: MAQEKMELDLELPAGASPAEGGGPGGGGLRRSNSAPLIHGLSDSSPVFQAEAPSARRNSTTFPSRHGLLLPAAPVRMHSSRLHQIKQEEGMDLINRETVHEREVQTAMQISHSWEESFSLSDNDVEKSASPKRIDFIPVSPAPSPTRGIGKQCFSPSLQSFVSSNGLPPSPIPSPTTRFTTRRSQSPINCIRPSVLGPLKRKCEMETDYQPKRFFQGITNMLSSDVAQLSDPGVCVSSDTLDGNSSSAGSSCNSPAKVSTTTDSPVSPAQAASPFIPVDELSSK
The experiment in a line: co-IP.

Assay [4] has as its target FLAG-FAM122A wild type (murine) (mouse) (UniProt Q9DB52). The experiment in a line: co-IP.
For assay [5], the target named is T4, FLAG-FAM122A E101K (mouse) (UniProt Q9DB52).
T4 sequence: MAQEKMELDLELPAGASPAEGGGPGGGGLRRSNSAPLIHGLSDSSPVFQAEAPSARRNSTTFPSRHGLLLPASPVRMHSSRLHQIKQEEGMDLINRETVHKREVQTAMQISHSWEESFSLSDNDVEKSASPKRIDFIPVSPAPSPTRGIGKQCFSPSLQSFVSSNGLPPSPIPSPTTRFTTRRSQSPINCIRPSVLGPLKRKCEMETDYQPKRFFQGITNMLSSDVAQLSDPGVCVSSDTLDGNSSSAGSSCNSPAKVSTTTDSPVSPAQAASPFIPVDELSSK
The experiment in a line: co-IP.

In assay [6] the target is T5, FLAG-FAM122A E97K (mouse) (UniProt Q9DB52).
T5 sequence: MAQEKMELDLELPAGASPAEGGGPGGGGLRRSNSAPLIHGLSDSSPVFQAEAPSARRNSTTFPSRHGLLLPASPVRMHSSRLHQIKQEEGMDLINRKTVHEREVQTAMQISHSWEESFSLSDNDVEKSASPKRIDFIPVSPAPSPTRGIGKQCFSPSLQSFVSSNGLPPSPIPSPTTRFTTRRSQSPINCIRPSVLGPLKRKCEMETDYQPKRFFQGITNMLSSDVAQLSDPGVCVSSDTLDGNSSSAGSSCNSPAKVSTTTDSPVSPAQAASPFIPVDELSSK
The experiment in a line: co-IP.

The target in assay [7] is T6, FLAG-FAM122A E97K-E101K (mouse) (UniProt Q9DB52).
T6 sequence: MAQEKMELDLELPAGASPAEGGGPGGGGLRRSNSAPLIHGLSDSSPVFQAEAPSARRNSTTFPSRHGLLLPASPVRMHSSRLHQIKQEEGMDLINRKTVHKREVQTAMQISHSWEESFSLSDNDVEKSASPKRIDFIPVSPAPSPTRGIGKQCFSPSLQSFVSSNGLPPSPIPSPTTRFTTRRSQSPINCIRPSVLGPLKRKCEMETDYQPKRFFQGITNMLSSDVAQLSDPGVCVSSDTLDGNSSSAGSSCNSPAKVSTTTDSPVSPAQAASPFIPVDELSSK
The experiment in a line: co-IP.

For assay [8], the target named is T7, FLAG-FAM122A RLAAIK (helix tolerant mutant) (mouse) (UniProt Q9DB52).
T7 sequence: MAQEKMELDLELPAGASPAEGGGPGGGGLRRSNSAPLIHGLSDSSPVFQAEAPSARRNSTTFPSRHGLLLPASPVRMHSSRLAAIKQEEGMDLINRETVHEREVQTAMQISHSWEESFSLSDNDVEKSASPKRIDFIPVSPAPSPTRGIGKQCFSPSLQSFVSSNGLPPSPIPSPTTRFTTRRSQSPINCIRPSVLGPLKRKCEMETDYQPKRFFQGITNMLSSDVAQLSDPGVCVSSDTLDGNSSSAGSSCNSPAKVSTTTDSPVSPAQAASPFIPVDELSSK
The experiment in a line: co-IP.

Assay [9] addresses T8, FLAG-FAM122A RLGGIK (helix breaker mutant, Gly) (mouse) (UniProt Q9DB52).
T8 sequence: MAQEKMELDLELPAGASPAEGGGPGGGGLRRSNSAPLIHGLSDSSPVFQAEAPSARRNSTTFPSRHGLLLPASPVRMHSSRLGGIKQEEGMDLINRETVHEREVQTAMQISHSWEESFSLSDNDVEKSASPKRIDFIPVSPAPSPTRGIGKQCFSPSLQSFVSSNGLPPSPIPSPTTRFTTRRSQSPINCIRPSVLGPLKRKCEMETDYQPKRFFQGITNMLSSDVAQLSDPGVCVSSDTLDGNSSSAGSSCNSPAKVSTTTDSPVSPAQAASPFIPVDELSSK
The experiment in a line: co-IP.

Assay [10] has as its target T9, FLAG-FAM122A RLPPIK (helix breaker mutant, Pro) (mouse) (UniProt Q9DB52).
T9 sequence: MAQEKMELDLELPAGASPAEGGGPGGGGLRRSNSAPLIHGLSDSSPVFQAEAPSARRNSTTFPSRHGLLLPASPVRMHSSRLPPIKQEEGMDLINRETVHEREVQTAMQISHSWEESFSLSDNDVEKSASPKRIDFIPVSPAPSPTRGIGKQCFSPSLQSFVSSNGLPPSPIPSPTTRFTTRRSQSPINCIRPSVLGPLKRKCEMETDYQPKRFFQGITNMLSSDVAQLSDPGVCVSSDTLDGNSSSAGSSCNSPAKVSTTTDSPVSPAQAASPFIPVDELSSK
The experiment in a line: co-IP.

Assay [11] concerns the target T10, FAM122A(L70-K86) peptide fused to GST (mouse) (UniProt Q9DB52).
T10 sequence: LPASPVRMHSSRLHQIK
The experiment in a line: pull-down.

The target of assay [12] is GFP-FAM122A (mouse) (UniProt Q9DB52). The experiment in a line: pull-down.
Assay [13] has as its target GST-FAM122A (mouse) (UniProt Q9DB52). The experiment in a line: pull-down.
For assay [14], the target named is RFP-FAM122A (mouse) (UniProt Q9DB52). The experiment in a line: pull-down.

Results are given in words; binding and its absence hold for the method and conditions named. In cells and extracts the contact can be indirect. Some results given as binding are weak or reduced against the parent protein; the word gives no strength. For some of these results: Sequences can lack the tags named with a protein.

Drawing on doi:10.1101/2023.03.06.531310, this text covers binding for two molecules.

B1: Myc-B55α wild type (protein, UniProt P63151 1-447)
chain: MAGAGGGNDIQWCFSQVKGAVDDDVAEADIISTVEFNHSGELLATGDKGGRVVIFQQEQENKIQSHSRGEYNVYSTFQSHEPEFDYLKSLEIEEKINKIRWLPQKNAAQFLLSTNDKTIKLWKISERDKRPEGYNLKEEDGRYRDPTTVTTLRVPVFRPMDLMVEASPRRIFANAHTYHINSISINSDYETYLSADDLRINLWHLEITDRSFNIVDIKPANMEELTEVITAAEFHPNSCNTFVYSSSKGTIRLCDMRASALCDRHSKLFEEPEDPSNRSFFSEIISSISDVKFSHSGRYMMTRDYLSVKIWDLNMENRPVETYQVHEYLRSKLCSLYENDCIFDKFECCWNGSDSVVMTGSYNNFFRMFDRNTKRDITLEASRENNKPRTVLKPRKVCASGKRKKDEISVDSLDFNKKILHTAWHPKENIIAVATTNNLYIFQDKVN
As for B1, the binding result in [1] is “no binding”; in assay [2], “no binding”; in assay [3] it was “binds”; in assay [4], “binds”.

B2: endogenous B55α (protein, UniProt P63151 1-447)
chain: MAGAGGGNDIQWCFSQVKGAVDDDVAEADIISTVEFNHSGELLATGDKGGRVVIFQQEQENKIQSHSRGEYNVYSTFQSHEPEFDYLKSLEIEEKINKIRWLPQKNAAQFLLSTNDKTIKLWKISERDKRPEGYNLKEEDGRYRDPTTVTTLRVPVFRPMDLMVEASPRRIFANAHTYHINSISINSDYETYLSADDLRINLWHLEITDRSFNIVDIKPANMEELTEVITAAEFHPNSCNTFVYSSSKGTIRLCDMRASALCDRHSKLFEEPEDPSNRSFFSEIISSISDVKFSHSGRYMMTRDYLSVKIWDLNMENRPVETYQVHEYLRSKLCSLYENDCIFDKFECCWNGSDSVVMTGSYNNFFRMFDRNTKRDITLEASRENNKPRTVLKPRKVCASGKRKKDEISVDSLDFNKKILHTAWHPKENIIAVATTNNLYIFQDKVN
As to B2, the binding entry in assay [5] is reported as “binds”; in assay [6], “binds”; in [7] it was “binds”; in [2], “no binding”; in assay [8] it was “binds”; in assay [9], “no binding”. Besides, the binding result in [10] is “no binding”; in assay [4] it was “binds”; in assay [11] it was “no binding”; in assay [12], “binds”; in [13] it was “binds”; in [14], “binds”.
